From patent US20230174946A1, “ORGAN INFECTION MODELS” (priority 2020, published 2023)
“Also recorded” adds a separate entry of the source. At least one compound was matched to its structure with a doubt left.

Assays:
Format in all cases: cell-based
Details in all cases: pre-treatment; 10 µM Hydroxychloroquine or Remdesivir, 100 units/ml IFNB1
SARS-CoV-2 [1] = system: SARS-CoV-2
SARS-CoV-2 [2] = system: SARS-CoV-2; remark: listed apart in the source
SARS-CoV-2 [3] = system: SARS-CoV-2; remark: listed apart in the source

CCC(CC)COC(=O)[C@H](C)N[P@](=O)(OC[C@H]1O[C@@](C#N)(c2ccc3c(N)ncnn23)[C@H](O)[C@@H]1O)Oc1ccccc1 [Remdesivir]
effect on viral infection/replication in AT2 cultures (in words) (SARS-CoV-2 [1]): strongly suppressed; also recorded: significantly reduced viral replication | effect on viral N gene RNA / viral replication in proximal ALI cultures (in words) (SARS-CoV-2 [2]): significantly reduced viral infection/replication | effect on viral replication in alveolar organoid cultures (in words) (SARS-CoV-2 [3]): significantly reduced viral replication; also recorded: consistently strong inhibition of viral replication/infection
